# Patent publication US11419870B2, “Intermittent dosing of MDM2 inhibitor” (Novartis AG, priority 2014, dated 2022)
# Some entries share one result that the patent states for a list of compounds.
# System: BBC3 (puma)
# Test: Pharmacodynamic qRT-PCR: Puma mRNA induction in SJSA-1 tumor
# Type: in vivo, Human
# Settings: previously, lower per os dose
# Source text: At the times indicated, animals were anaesthetized by exposure to 2-3% v/v isofluorane in medical oxygen: • Either the animal was killed without recovering from anesthetic after blood sampling. Blood was collected into commercially prepared EDTA coated tubes (Milian, cat #TOM-14C) in order to extract plasma. The tissues were excised, weighed and rapidly frozen in liquid nitrogen. • Or a tumor biopsy was collected by using a biopsy gun and flushing the needle with RLT buffer in Barney rubble tubes (Covaris, cat #520048). In addition, 20 μl of blood may have been collected from the tail vein and diluted in 20 μl of water. After recovery of anesthesia, animals were transferred in their respective cages.
# Frozen tissues were cryogenic dry pulverized and biopsies were sonicated using the CryoPrep™ system (model CP-02) from Covaris. […] The resulting powder was collected with a spatula and weighed for further processing (mRNA purification or quantification of compound in tissues). […]
# Total RNA was purified from cell pellets using the QIAshredder (79654, Qiagen) and RNeasy Mini Kit (74106, Qiagen) according to the manufacturer's instructions, with the exception that no DNA digestion was performed. […] Total RNA was quantitated using the spectrophotometer ND-1000 Nanodrop®. […]
compound,measurement,value
"COc1ncc(-c2nc3c(n2C(C)C)[C@H](c2ccc(Cl)cc2)N(c2cc(Cl)cn(C)c2=O)C3=O)c(OC)n1 [Compound A, (S)-5-(5-Chloro-1-methyl-2-oxo-1,2-dihydro-pyridin-3-yl)-6-(4-chloro-phenyl)-2-(2,4-dimethoxy-pyrimidin-5-yl)-1-isopropyl-5,6-dihydro-1H-pyrrolo[3,4-d]imidazol-4-one]",Puma mRNA induction Emax,< 70 fold induction
